Measurements from paper PMC10327518 (Journal of Enzyme Inhibition and Medicinal Chemistry, 2023).

System: Aβ25-35-induced PC12 cell injury

COc1cc2c(cc1OC)C(=O)C(CC1CCN(Cc3ccccc3)CC1)C2 (stereo not shown) [Donepezil, donepezil, reference compound]
Neuroprotective effect (in words): potent neuroprotective effect
